The values below come from US20210228523A1, “MODULATORS OF SESTRIN-GATOR2 INTERACTION AND USES THEREOF” (Navitor Pharmaceuticals, Inc., priority 2017, published 2021).

Each structure is given as a SMILES string.

The data set deals with Male Sprague Dawley rats. Description: Novelty Suppressed Feeding Test (NSFT) with home cage feeding control. It counts as in vivo, rat. Particulars: for home cage food consumption: Example G, day 10. As for the experimental part:
Behavioral Analysis Using the Novelty Suppressed Feeding Test (NSFT): The NSFT was conducted as previously described (Warner-Schmidt, J. L. & Duman, R. S. PNAS 104(11): 4647-52 (2007)). Rats were fasted in their home cages for 20 hr and then placed in a Plexiglas open field (76.5 cm×76.5 cm×40 cm) with a small amount of food in the center. Animals were allowed to explore the open field for 8 min and the latency to feed (s) was recorded.
Chronic Unpredictable Stress (CUS) Conditions: Rats were exposed to a variable sequence of 12 unpredictable stressors, preventing habituation as described (Li, N. et al., Biol Psychiatry 69(8): 754-61 (2011)). The following twelve stressors were applied (2 per day, for 25 days): cage rotation, light on, light off, cold stress, isolation, swim stress, food and water deprivation, wet bedding, stroboscope, cage tilt, odor exposure and group housing. The animals in non-stressed (NS) groups were housed normally without the application of external stressors. Both NS and CUS rats were handled and weighed weekly.
Study Design. Thirty-two (32) male Sprague Dawley Male rats weighing between 175 and 200 g were randomized into 4 study groups (n=8/treatment group), following a 5-day acclimation period. On study day 0, rats received a single dose of either saline (Sal) or ketamine (Ket) in Groups 1 and 2, respectively, by intraperitoneal injection (i.p.). […] On day 2, 48 hrs after dosing, the LMA of all rats was measured in an open field. […]
Study Design: Fifty-six (56) male rats weighing between 175 and 200 g were randomized into 4 study groups (n=14/group), following a 5-day acclimation period. […] Crude synaptosomes were prepared from the PFC and the synaptic proteins, GluR1 and PSD95 were quantitated by WB.
Study Design. […] Each treatment group was assessed at the designated time following oral dosing in FST 24 hrs (day 1) LMA 48 hrs (day 2) and the NSFT 72 hrs (day 3 following a 20 hr period of fasting). LMA was measured to rule out overall changes in generally locomotor activity. […]

In the case of `CNC1(c2ccccc2Cl)CCCCC1=O` (stereo not drawn) [Ket, ketamine, reference compound], the “home cage food consumption” value (Ket 10 mg/kg i.p. single dose) is on record as “no difference”. As to `CC(C)(C[C@H](N)C(=O)O)C(F)F` [NV-5138], the “home cage feeding (overall food consumption)” value (Example F, NV-5138 160 mg/kg oral, immediately following the NSFT) is given as “No significant differences”. Also, the “home cage food consumption” value (NV-5138 160 mg/kg oral single dose) is “no difference”.
